This continues a long series; more values of the same kind are listed elsewhere.
Test system: 867 cancer cell lines
Experiment: PRISM assay (barcoded cell line screening, 5 days);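 note: top test concentration 10 mM in eight-point dilution series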
Assay type: cell-based
Set-up: scale not given here
Description: The principle of the PRISM assay has been described elsewhere and was conducted as previously outlined by the PRISM team at the Broad Institute.^[ [14], [31] ^] In PRISM (MTS027) experiments, KG‐FP‐003 was tested across 867 different cancer cell lines. Cells were treated with eight concentration gradients, ranging from 4.6 nM to […], in triplicate dilutions over a period of five days. Each plate was treated with 20 µM bortezomib as a positive control and DMSO as a negative control. Three replicate experiments were performed for each compound. The resulting data were analyzed using GraphPad PRISM 9.5.

SMILES: CNC(=O)c1cc2c(c(F)c1-c1c(Cl)c(F)cc3c1C[C@@](CN[C@H]1CC[C@H](C(=O)N4CCC(CC5CCN(C(=O)COc6ccc(N7CCC(=O)NC7=O)c(C)c6)CC5)CC4)CC1)(c1ccccc1)O3)[C@@H](O)[C@@H](C)C2 [KG-FP-003]
- KG-FP-003-AUC (T24_URINARY_TRACT, ACH-000018, PR500): 0.89
- KG-FP-003-AUC (T47D_BREAST, ACH-000147, PR500): 0.99
- KG-FP-003-AUC (T84_LARGE_INTESTINE, ACH-000381, PR300): 0.98
- KG-FP-003-AUC (T98G_CENTRAL_NERVOUS_SYSTEM, ACH-000571, PR500): 0.83
- KG-FP-003-AUC (TALL1_HAEMATOPOIETIC_AND_LYMPHOID_TISSUE, ACH-000197, PR300): 0.77
- KG-FP-003-AUC (TANOUE_HAEMATOPOIETIC_AND_LYMPHOID_TISSUE, ACH-001669, PR300): 0.77
- KG-FP-003-AUC (TASK1_CENTRAL_NERVOUS_SYSTEM, ACH-001670, PR300): 0.99
- KG-FP-003-AUC (TC32_BONE, ACH-001205, PR300): 0.86
- KG-FP-003-AUC (TC106_BONE, ACH-001283, PR300): 0.98
- KG-FP-003-AUC (TC205_BONE, ACH-001431, PR300): 1.00
- KG-FP-003-AUC (TCCPAN2_PANCREAS, ACH-000502, PR500): 1.00
- KG-FP-003-AUC (TCCSUP_URINARY_TRACT, ACH-000720, PR500): 0.84
- KG-FP-003-AUC (TE1_OESOPHAGUS, ACH-000647, PR500): 0.91
- KG-FP-003-AUC (TE5_OESOPHAGUS, ACH-000408, PR500): 0.98
- KG-FP-003-AUC (TE6_OESOPHAGUS, ACH-000605, PR500): 0.77
- KG-FP-003-AUC (TE8_OESOPHAGUS, ACH-000452, PR500): 0.86
- KG-FP-003-AUC (TE9_OESOPHAGUS, ACH-000694, PR500): 0.99
- KG-FP-003-AUC (TE10_OESOPHAGUS, ACH-000318, PR500): 0.98
- KG-FP-003-AUC (TE11_OESOPHAGUS, ACH-000488, PR500): 0.88
- KG-FP-003-AUC (TE14_OESOPHAGUS, ACH-000726, PR500): 0.85
- KG-FP-003-AUC (TE15_OESOPHAGUS, ACH-000353, PR300): 0.73
- KG-FP-003-AUC (TE617T_SOFT_TISSUE, ACH-000051, PR300): 0.28
- KG-FP-003-AUC (TEN_ENDOMETRIUM, ACH-000397, PR500): 0.78
- KG-FP-003-AUC (TF1_HAEMATOPOIETIC_AND_LYMPHOID_TISSUE, ACH-000387, PR300): 1.00
- KG-FP-003-AUC (TFK1_BILIARY_TRACT, ACH-001673, PR300): 0.92
- KG-FP-003-AUC (TGBC1TKB_BILIARY_TRACT, ACH-001861, PR300): 0.78
- KG-FP-003-AUC (TGBC18TKB_LARGE_INTESTINE, ACH-002023, PR300): 0.91
- KG-FP-003-AUC (TGBC52TKB_BILIARY_TRACT, ACH-001862, PR300): 0.84
- KG-FP-003-AUC (TGW_AUTONOMIC_GANGLIA, ACH-001674, PR300): 0.99
- KG-FP-003-AUC (THP1_HAEMATOPOIETIC_AND_LYMPHOID_TISSUE, ACH-000146, PR300): 0.90
- KG-FP-003-AUC (TM31_CENTRAL_NERVOUS_SYSTEM, ACH-000592, PR500): 0.93
- KG-FP-003-AUC (TM87_SOFT_TISSUE, ACH-000172, PR300): 0.40
- KG-FP-003-AUC (TM87_SOFT_TISSUE, ACH-000172, PR500): 0.48
- KG-FP-003-AUC (TOV21G_OVARY, ACH-000885, PR500): 0.54
- KG-FP-003-AUC (TOV112D_OVARY, ACH-000048, PR500): 0.98
- KG-FP-003-AUC (TT1TKB_LARGE_INTESTINE, ACH-002025, PR300): 1.00
- KG-FP-003-AUC (TT2609C02_THYROID, ACH-000716, PR500): 0.91
- KG-FP-003-AUC (TTC442_SOFT_TISSUE, ACH-001750, PR300): 0.25
- KG-FP-003-AUC (TTC549_SOFT_TISSUE, ACH-001211, PR300): 0.85
- KG-FP-003-AUC (TTC642_SOFT_TISSUE, ACH-001212, PR300): 0.99
- KG-FP-003-AUC (TTC709_SOFT_TISSUE, ACH-000597, PR300): 0.43
- KG-FP-003-AUC (TTC1240_SOFT_TISSUE, ACH-001210, PR300): 0.92
- KG-FP-003-AUC (TT_OESOPHAGUS, ACH-000561, PR500): 0.99
- KG-FP-003-AUC (TT_THYROID, ACH-001321, PR500): 0.97
- KG-FP-003-AUC (TUHR4TKB_KIDNEY, ACH-000495, PR500): 0.72
- KG-FP-003-AUC (TYKNU_OVARY, ACH-000430, PR300): 0.88
- KG-FP-003-AUC (U2OS_BONE, ACH-000364, PR300): 0.65
- KG-FP-003-AUC (U2OS_BONE, ACH-000364, PR500): 0.79
- KG-FP-003-AUC (U87MG_CENTRAL_NERVOUS_SYSTEM, ACH-000075, PR300): 0.85
- KG-FP-003-AUC (U118MG_CENTRAL_NERVOUS_SYSTEM, ACH-000040, PR500): 0.93
- KG-FP-003-AUC (U178_CENTRAL_NERVOUS_SYSTEM, ACH-000208, PR300): 0.72
- KG-FP-003-AUC (U251MG_CENTRAL_NERVOUS_SYSTEM, ACH-000232, PR500): 0.73
- KG-FP-003-AUC (U266B1_HAEMATOPOIETIC_AND_LYMPHOID_TISSUE, ACH-000626, PR300): 0.83
- KG-FP-003-AUC (U343_CENTRAL_NERVOUS_SYSTEM, ACH-000036, PR300): 0.62
- KG-FP-003-AUC (U2904_HAEMATOPOIETIC_AND_LYMPHOID_TISSUE, ACH-001677, PR300): 0.88
- KG-FP-003-AUC (U2940_HAEMATOPOIETIC_AND_LYMPHOID_TISSUE, ACH-001678, PR300): 0.75
- KG-FP-003-AUC (U2973_HAEMATOPOIETIC_AND_LYMPHOID_TISSUE, ACH-001679, PR300): 0.95
- KG-FP-003-AUC (UACC62_SKIN, ACH-000425, PR500): 0.90
- KG-FP-003-AUC (UACC257_SKIN, ACH-000579, PR500): 0.99
- KG-FP-003-AUC (UBLC1_URINARY_TRACT, ACH-000741, PR500): 0.75
- KG-FP-003-AUC (UMRC3_KIDNEY, ACH-001687, PR300): 0.88
- KG-FP-003-AUC (UMRC7_KIDNEY, ACH-001688, PR300): 0.77
- KG-FP-003-AUC (UMUC1_URINARY_TRACT, ACH-000834, PR500): 0.79
- KG-FP-003-AUC (UMUC5_URINARY_TRACT, ACH-001411, PR300): 0.89
- KG-FP-003-AUC (UMUC6_URINARY_TRACT, ACH-001414, PR300): 0.68
- KG-FP-003-AUC (UMUC7_URINARY_TRACT, ACH-001415, PR300): 0.50
- KG-FP-003-AUC (UMUC10_URINARY_TRACT, ACH-001412, PR300): 0.78
- KG-FP-003-AUC (UMUC11_URINARY_TRACT, ACH-001413, PR300): 0.75
- KG-FP-003-AUC (UMUC13_URINARY_TRACT, ACH-001407, PR300): 0.52
- KG-FP-003-AUC (UO31_KIDNEY, ACH-000428, PR500): 0.73
- KG-FP-003-AUC (UPCISCC072_UPPER_AERODIGESTIVE_TRACT, ACH-001693, PR300): 0.46
- KG-FP-003-AUC (UPCISCC111_UPPER_AERODIGESTIVE_TRACT, ACH-001696, PR300): 0.72
- KG-FP-003-AUC (UPCISCC116_UPPER_AERODIGESTIVE_TRACT, ACH-001698, PR300): 0.86
- KG-FP-003-AUC (UW228_CENTRAL_NERVOUS_SYSTEM, ACH-001232, PR300): 0.74
- KG-FP-003-AUC (VAESBJ_SOFT_TISSUE, ACH-001702, PR300): 0.90
- KG-FP-003-AUC (VAL_HAEMATOPOIETIC_AND_LYMPHOID_TISSUE, ACH-001703, PR300): 0.77
- KG-FP-003-AUC (VMCUB1_URINARY_TRACT, ACH-000545, PR500): 0.70
- KG-FP-003-AUC (VMRCRCW_KIDNEY, ACH-000484, PR500): 0.95
- KG-FP-003-AUC (VMRCRCZ_KIDNEY, ACH-000171, PR500): 0.91
- KG-FP-003-AUC (WAOSEL_HAEMATOPOIETIC_AND_LYMPHOID_TISSUE, ACH-001707, PR300): 0.89
- KG-FP-003-AUC (WERIRB1_AUTONOMIC_GANGLIA, ACH-001421, PR300): 0.99
- KG-FP-003-AUC (WM88_SKIN, ACH-000899, PR500): 1.00
- KG-FP-003-AUC (WM793_SKIN, ACH-000827, PR500): 0.73
- KG-FP-003-AUC (WM983B_SKIN, ACH-000765, PR500): 0.93
- KG-FP-003-AUC (WM1799_SKIN, ACH-000661, PR500): 0.84
- KG-FP-003-AUC (WM2664_SKIN, ACH-001239, PR500): 1.00
- KG-FP-003-AUC (WSUDLCL2_HAEMATOPOIETIC_AND_LYMPHOID_TISSUE, ACH-000534, PR300): 0.76
- KG-FP-003-AUC (YAPC_PANCREAS, ACH-000332, PR500): 0.90
- KG-FP-003-AUC (YD8_UPPER_AERODIGESTIVE_TRACT, ACH-000630, PR500): 0.43
- KG-FP-003-AUC (YD10B_UPPER_AERODIGESTIVE_TRACT, ACH-000723, PR500): 0.72
- KG-FP-003-AUC (YD15_SALIVARY_GLAND, ACH-000836, PR500): 0.55
- KG-FP-003-AUC (YD38_UPPER_AERODIGESTIVE_TRACT, ACH-000762, PR500): 0.86
- KG-FP-003-AUC (YH13_CENTRAL_NERVOUS_SYSTEM, ACH-000469, PR500): 0.73
- KG-FP-003-AUC (YKG1_CENTRAL_NERVOUS_SYSTEM, ACH-000570, PR500): 0.47
- KG-FP-003-AUC (YSCCC_BILIARY_TRACT, ACH-001864, PR300): 1.00
- KG-FP-003-AUC (ZR751_BREAST, ACH-000097, PR500): 0.75

Source: article PMC12752627, “Discovery of a Potent and Selective TEAD Degrader with Durable Degradation Activity” (Advanced Science, 2025)
